Columns and labels:
[1] = system: 6-month-old male MDX mice; conditions: 1.7 mg/kg (mouse) oral for 4 weeks, compared to control group; FIG. 15
[2] = system: 20-month-old C57BL/6 aged mice, immobilization model; conditions: 1.7 mg/kg (mouse) oral, 20-month-old mice, compared to control group; FIG. 14
[3] = system: 20-month-old male C57BL/6 aged mice, immobilization model; conditions: oral, concentration-dependent, 20-month-old mice, tests 5 and 12 days after immobilization, compared to control group; FIG. 13

CCCCCCCCCCCCCCCC[n+]1ccccc1 [cetylpyridinium chloride]
motor ability (rota-rod and treadmill tests) in MDX mice [1]: improved
cross-sectional area of the muscle (TA) in aged mice [2]: increased
motor ability (treadmill) in aged mice [3]: improved

Reference: US9949960B2, “Pharmaceutical composition for preventing or treating muscle weakness-related diseases, containing butylpyridinium or derivative thereof” (KOREA RESEARCH INSTITUTE OF BIOSCIENCE AND BIOTECHNOLOGY, priority 2014, dated 2018)
